In paper PMC7463931, “Structure-Antifouling Activity Relationship and Molecular Targets of Bio-Inspired(thio)xanthones” (Biomolecules, 2020):

System: Mytilus galloprovincialis plantigrade larvae
Assay: Toxicity (mortality, LC50) to mussel plantigrade larvae in the anti-settlement bioassay
Type: in vivo
Protocol: The 19 xanthone derivatives were screened for anti-settlement activity toward M. galloprovincialis plantigrade larvae. Samples of M. galloprovincialis juveniles were collected from mussel beds during low tides in the intertidal zone of Memória beach, Matosinhos, Portugal (41°13′59″ N; 8°43′28″ W). Mussel plantigrade larvae (0.5–2 mm) were sorted in a binocular magnifier (Olympus SZX2-ILLT, Tokyo, Japan) and kept in filtered seawater until bioassays preparation. […] Five competent larvae were included per well and four well replicates per condition. Stock solutions (50 mM) in DMSO were used to prepare test media in filtered seawater (0.1%). Negative and positive controls were used, namely DMSO (0.1%) and CuSO4 (5 μM) as an efficient antifouling agent. After exposure, the anti-settlement bioactivity was determined by the observation of efficiently attached plantigrade larvae considering the existence/absence of produced byssal threads for each test condition. Compounds producing more than 50% of settlement inhibition at 50 µM were selected for antifouling effectiveness (EC50) and toxicity (LC50 and therapeutic index) bioassays, according to previously validated experimental conditions.
Therapeutic ratios (LC50/EC50) were used to evaluate the effectiveness versus toxicity of bioactive compounds. For the differential proteome analysis, non-parametric Kruskall-Wallis (KW) and Mann Whitney (MW) tests were utilized to report protein abundance differences between treatments in MultiExperiment Viewer (MeV) version 4.9 (The Institute for Genomic Research (TIGR), La Jolla, CA, USA) at a confidence level of 95% [34]. The hierarchical clustering of proteins was made using Pearson correlation and average linkage method.

SMILES | LC50/EC50 (therapeutic ratio)
O=c1c2ccccc2oc2ccc(O)c(O)c12 [Compound 5, 1,2-dihydroxy-] | >32.34
O=c1c2ccccc2oc2c(O)cccc12 [Compound 4, 4-hydroxy-] | >23.28
CCCOc1ccc(NCCc2ccc3c(c2)OCO3)c2c(=O)c3ccccc3sc12 [Compound 15, 1-[11]-4-propoxy-9H-thioxanthen-9-one] | >17.48
